In the experiment the target is Nuc2-BBX28 (Arabidopsis thaliana) (UniProt O81834). The experiment in a line: nucleolus-tethering system (NoTS); transient co-expression in tobacco (N. tabacum) leaves; bait fused to Nuc2 and held at the nucleolus, recruitment of CO to the periphery of the nucleolus seen by microscopy.

Protein sequences, listed by entry. Tags and fused reporters are not part of them. Lines headed by an entry give the natural chain unless they say otherwise; changes in a name come on top.
UniProt O81834: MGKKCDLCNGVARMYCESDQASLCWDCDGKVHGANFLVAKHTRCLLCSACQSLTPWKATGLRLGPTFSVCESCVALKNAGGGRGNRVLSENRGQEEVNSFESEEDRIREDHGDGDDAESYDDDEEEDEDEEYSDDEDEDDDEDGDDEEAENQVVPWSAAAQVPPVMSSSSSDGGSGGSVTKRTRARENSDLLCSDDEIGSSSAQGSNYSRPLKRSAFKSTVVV
UniProt Q39057: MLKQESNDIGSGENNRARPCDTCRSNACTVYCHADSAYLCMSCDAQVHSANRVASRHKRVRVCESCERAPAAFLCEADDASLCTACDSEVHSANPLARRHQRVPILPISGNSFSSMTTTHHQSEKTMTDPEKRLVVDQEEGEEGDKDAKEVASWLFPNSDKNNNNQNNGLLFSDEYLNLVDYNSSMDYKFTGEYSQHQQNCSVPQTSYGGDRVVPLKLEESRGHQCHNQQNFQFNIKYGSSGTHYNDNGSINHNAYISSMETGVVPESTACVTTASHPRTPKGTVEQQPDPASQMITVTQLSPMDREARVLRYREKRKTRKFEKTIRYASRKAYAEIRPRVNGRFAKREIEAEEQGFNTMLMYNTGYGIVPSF

No constants are given. Whether binding was seen depends on the method and setting. A result given as binding can be weak or reduced; the word gives no strength.

As for “CO as expressed in the NoTS assay (from UniProt Q39057 1-373)”, the binding result is recorded as “binds”.

For the origin of these results see article PMC7575571.
